Test results as given in paper PMC10070233.
These are yes or no findings as the source states them, for the method shown. Some entries that bind do so weakly or less than the wild type.

By UniProt entry, the sequences of proteins in these tests, tags left out. Residues count along the entry.
UniProt P09382: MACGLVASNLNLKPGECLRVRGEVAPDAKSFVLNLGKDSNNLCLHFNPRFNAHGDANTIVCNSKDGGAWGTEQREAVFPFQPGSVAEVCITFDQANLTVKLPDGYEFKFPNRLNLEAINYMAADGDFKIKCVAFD
UniProt P47929: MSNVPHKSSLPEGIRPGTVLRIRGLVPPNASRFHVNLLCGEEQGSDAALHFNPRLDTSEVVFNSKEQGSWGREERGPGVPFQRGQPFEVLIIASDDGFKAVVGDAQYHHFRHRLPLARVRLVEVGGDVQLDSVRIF
UniProt O00214: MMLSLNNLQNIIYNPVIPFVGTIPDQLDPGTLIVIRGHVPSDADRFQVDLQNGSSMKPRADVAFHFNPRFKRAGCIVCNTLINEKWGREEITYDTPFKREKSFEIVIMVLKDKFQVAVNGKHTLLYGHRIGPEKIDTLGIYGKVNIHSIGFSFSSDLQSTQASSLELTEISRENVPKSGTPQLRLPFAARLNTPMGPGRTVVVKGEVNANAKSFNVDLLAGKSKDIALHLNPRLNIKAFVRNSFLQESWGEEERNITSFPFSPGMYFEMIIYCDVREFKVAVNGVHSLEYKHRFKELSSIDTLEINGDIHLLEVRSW
UniProt P11362, residues 22-376: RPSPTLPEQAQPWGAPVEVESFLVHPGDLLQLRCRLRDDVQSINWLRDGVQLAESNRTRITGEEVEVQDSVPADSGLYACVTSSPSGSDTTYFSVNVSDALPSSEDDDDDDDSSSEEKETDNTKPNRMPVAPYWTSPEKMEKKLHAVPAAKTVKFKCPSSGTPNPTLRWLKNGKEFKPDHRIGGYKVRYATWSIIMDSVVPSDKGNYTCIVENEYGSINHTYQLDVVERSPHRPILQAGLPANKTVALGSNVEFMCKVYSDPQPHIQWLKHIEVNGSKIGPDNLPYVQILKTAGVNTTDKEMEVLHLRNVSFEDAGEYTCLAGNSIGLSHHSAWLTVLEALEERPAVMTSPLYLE

Assays:
Experiment in all cases: far-Western, overlay or dot blot; galectin array: recombinant galectins (0.5 pmol) dot-blotted on PVDF, blocked with 3% BSA, incubated with FGFRs-Fc or Fc (0.9 pM) overnight; detection with anti-Fc mAb-HRP and chemiluminescence; both purified
galectin-1 (human) = galectin-1 (human) (UniProt P09382)
galectin-10 (human) = target: T1, galectin-10 (human) (UniProt Q05315)
T1 sequence: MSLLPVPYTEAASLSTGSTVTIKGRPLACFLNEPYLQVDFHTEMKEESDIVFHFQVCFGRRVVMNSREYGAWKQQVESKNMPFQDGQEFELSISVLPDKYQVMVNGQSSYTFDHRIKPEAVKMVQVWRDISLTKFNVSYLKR

galectin-14 (human) = target: T2, galectin-14 (human) (UniProt Q8TCE9)
T2 sequence: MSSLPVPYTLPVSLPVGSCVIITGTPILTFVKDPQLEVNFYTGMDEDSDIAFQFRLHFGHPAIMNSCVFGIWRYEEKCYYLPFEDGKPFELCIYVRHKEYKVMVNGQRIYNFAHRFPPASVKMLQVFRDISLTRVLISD

galectin-16 (human) = target: T3, galectin-16 (human) (UniProt A8MUM7)
T3 sequence: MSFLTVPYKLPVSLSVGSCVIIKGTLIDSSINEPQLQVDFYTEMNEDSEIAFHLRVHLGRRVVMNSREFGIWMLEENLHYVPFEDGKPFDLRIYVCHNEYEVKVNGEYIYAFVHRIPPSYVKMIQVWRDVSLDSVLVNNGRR

galectin-4 (human) = target: T4, galectin-4 (human) (UniProt P56470)
T4 sequence: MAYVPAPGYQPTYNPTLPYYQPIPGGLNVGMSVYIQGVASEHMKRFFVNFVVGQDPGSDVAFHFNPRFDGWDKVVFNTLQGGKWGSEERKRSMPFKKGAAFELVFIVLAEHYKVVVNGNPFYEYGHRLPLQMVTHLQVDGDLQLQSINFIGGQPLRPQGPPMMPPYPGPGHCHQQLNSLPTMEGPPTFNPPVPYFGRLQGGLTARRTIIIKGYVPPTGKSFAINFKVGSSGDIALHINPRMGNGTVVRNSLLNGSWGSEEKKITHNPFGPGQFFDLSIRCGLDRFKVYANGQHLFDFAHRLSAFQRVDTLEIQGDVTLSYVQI

galectin-7 (human) = galectin-7 (human) (UniProt P47929)
galectin-8 (human) = galectin-8 (human) (UniProt O00214)
galectin-9 (human) = galectin-9 (human) (UniProt O00182)

binding (galectin-1 (human)): binds
binding (galectin-10 (human)): binds
binding (galectin-14 (human)): binds
binding (galectin-16 (human)): binds
binding (galectin-4 (human)): binds
binding (galectin-7 (human)): binds
binding (galectin-8 (human)): binds
binding (galectin-9 (human)): binds
Substance: extracellular region of FGFR1 fused to the Fc fragment of human IgG1 (from UniProt P11362 22-376) (Fc fusion)
